{"source": "patent US11020416B2", "about": "“Cancer chemotherapy employing halogenated analogs of thymidine” (priority 2015, dated 2021)", "origin": "cited, not measured here", "details": "after infusion of bromodeoxyuridine / iododeoxyuridine; cited from earlier work", "note": "Some entries share one result that the patent states for a list of compounds."}
{"molecule": "O=c1[nH]cc(Br)c(=O)[nH]1", "note": "[Bromouracil, 5-bromouracil]", "values": [{"measurement": "catabolite concentration in patient plasma relative to parent drug", "result": "≤ 100", "unit": "times"}]}
